About 5,400 (1.8%) of roughly 300,000 compounds were called active. The shares of active, inactive and inconclusive entries below differ from those in the screen. The call rests on the fitted dose curve; tested in HEK293 cells. A potency beside an inconclusive call is a rough fit, not a confirmed value.
Test: qHTS for inhibitors of binding or entry into cells for Marburg Virus
Conditions: Marburg virus pseudotyped entry inhibition, cell reporter; activity change, negative = inhibition: at 37.8 µM (top of the series) unless noted
On the % scale 0 is the no-effect control and ±100 the full control effect; potency means the concentration at half of the fitted maximal effect.

Structure (SMILES) | Potency | activity change, negative = inhibition
COc1ccc(F)cc1S(=O)(=O)N1CCN(c2ccccn2)CC1 | inconclusive: 0.562 µM [inhibitor, partial curve, poor fit] | –
CC(=O)N1CCN(c2ccc(NC(=O)c3ccc(N4CCCC4)c([N+](=O)[O-])c3)cc2Cl)CC1 | inconclusive: 29.1 µM [inhibitor, single point] | –
COc1cccc(OC)c1C(=O)Nc1nnc(-c2cccs2)s1 | inconclusive: 6.31 µM [inhibitor, single point] | –
COc1ccc(NC(=O)CCc2c(C)nc3c(-c4ccc(F)cc4)c(C)nn3c2C)c(OC)c1 | inconclusive: 5.62 µM [activator, single point] | –
COc1ccc(C2=[N+]([O-])C(C)(C)N(O)C2(C)C)cc1 | inconclusive: 10.3 µM [activator, single point] | –
CCCCOc1ccc(-c2nnn(CC(=O)NCc3ccco3)n2)cc1 | – | inactive: -3.32%
COc1ccc(-c2nncnn2)cc1 | – | inactive: 1.31%
Brc1ccc2nc(SCCOc3ccccc3)[nH]c2c1 | inconclusive: 6.31 µM [activator, single point] | –
Cc1ccc(-c2csc3nc(SCC(N)=O)n(Cc4ccccc4)c(=O)c23)cc1 | inconclusive: 35.5 µM [inhibitor, single point] | –
COc1ccc(Nc2ncnc3sccc23)cc1 | inconclusive: 2.24 µM [activator, partial curve, poor fit] | –
Cc1occc1C(=O)N1CCCC(CO)(Cc2ccc(F)cc2F)C1 (centres undefined) | inconclusive: 6.31 µM [inhibitor, single point] | –
Clc1ccccc1-c1nnc(-c2cccs2)o1 | inconclusive: 3.16 µM [activator, single point] | –
CC(=O)Nc1nonc1-c1nc2ccccc2n1Cc1ccccc1Br | – | inactive: 7.39% [at 46.1 µM]
CC1(C)Cc2cccc(OCC(=O)N3CCN(c4ccccc4F)CC3)c2O1 | inconclusive: 7.08 µM [inhibitor, full curve, poor fit] | –
Fc1ccc(CSc2nnc3ccccn23)c(Cl)c1 | inconclusive: 0.562 µM [activator, full curve, poor fit] | –
COC(=O)c1cn(Nc2ncc(C(F)(F)F)cc2Cl)c(=O)c2ccccc12 | inconclusive: 12.6 µM [inhibitor, partial curve, poor fit] | –
COC(=O)[C@@](NC(C)=O)(Nc1ccccn1)C(F)(F)F | – | inactive: 4.38%
CCC(C)(C)C1CCc2c(sc(NC(=O)c3ccccc3C(=O)O)c2C#N)C1 (centres undefined) | inconclusive: 14.1 µM [inhibitor, partial curve, poor fit] | –
C=CCn1c(SC(C)C(=O)NCCC2=CCCCC2)nc2ccccc2c1=O (centres undefined) | inconclusive: 28.2 µM [inhibitor, single point] | –

Given tab-delimited: part of the list above.
Structure (SMILES)	Potency	activity change, negative = inhibition
Brc1ccc2nc(SCCOc3ccccc3)[nH]c2c1	inconclusive: 6.31 µM [activator, single point]	–
Cc1occc1C(=O)N1CCCC(CO)(Cc2ccc(F)cc2F)C1 (centres undefined)	inconclusive: 6.31 µM [inhibitor, single point]	–
Clc1ccccc1-c1nnc(-c2cccs2)o1	inconclusive: 3.16 µM [activator, single point]	–
CC(=O)Nc1nonc1-c1nc2ccccc2n1Cc1ccccc1Br	–	inactive: 7.39% [at 46.1 µM]
COC(=O)[C@@](NC(C)=O)(Nc1ccccn1)C(F)(F)F	–	inactive: 4.38%

From PubChem BioAssay AID540276 (National Center for Advancing Translational Sciences (NCATS), 2011)
